The other results are listed elsewhere or left out. This data set is noisy: repeats of one test often differ as much as different tests do.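 Flies heterozygous for the ATM8 allele over a balancer chromosome carrying normal ATM were mated with each other on treated food. Parents laid eggs for 5–6 days and the young then developed for about 12 days, so both parents and larvae ate the compound. The read-out is the share of all emerged adults that carry two ATM8 copies, compared with 2% DMSO control vials. The paper called compounds neutral at 10–20% such offspring, harmful below 10%, and helpful above 20%.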
System: Drosophila melanogaster ATM8 (temperature-sensitive ATM allele)
Experiment: fraction of eclosed F1 progeny that are homozygous ATM8 (rescue of developmental lethality); higher = more rescue of ATM8 developmental lethality; extreme values may be limits of the assay
Conditions: compound concentration applied to food 0.2 mM; 21 °C

SMILES	fraction of eclosed F1 progeny that are homozygous ATM8
C[C@]12C=CC(=O)C=C1CC[C@@H]1[C@@H]2CC[C@]2(C)C(=O)CC[C@@H]12	0.29
CCCNCC(O)COc1ccccc1C(=O)CCc1ccccc1 (configuration not stated)	0.247
COc1cc([C@@H]2c3cc4c(cc3[C@@H](O[C@@H]3O[C@@H]5CO[C@@H](C)O[C@H]5[C@H](O)[C@H]3O)[C@H]3COC(=O)[C@H]23)OCO4)cc(OC)c1O	0.224
COc1ccccc1OCC(O)CN1CCN(CC(=O)Nc2c(C)cccc2C)CC1 (configuration not stated)	0.21
O=[N+]([O-])c1cccc2cn[nH]c12	0.208
CC(=O)CC1CCCCN1 (configuration not stated)	0.235
CC(=O)Oc1ccc2c(c1)CCC1C2CC[C@]2(C)C(=O)CCC12 (some centres not stated)	0.122
CC(=O)O[C@@H]1C[C@@]23C[C@@]24CC[C@H](O[C@@H]2OC[C@@H](O)[C@H](O)[C@H]2O)C(C)(C)[C@@H]4CC[C@H]3[C@]2(C)C[C@@H]3O[C@]4(C[C@@H](C)[C@@H]3[C@@]12C)O[C@H](O)[C@@]1(C)O[C@@H]41	0.125
CN(C)c1nc(N(C)C)nc(N(C)C)n1	0.0787
N[C@@H](Cc1ccccc1)C(=O)O	0.0444
CC[C@@]1(O)C[C@H](O[C@H]2C[C@H](N(C)C)[C@H](O)[C@H](C)O2)c2c(cc3c(c2O)C(=O)c2c(O)ccc(O)c2C3=O)[C@H]1C(=O)OC	0.107
CC(=O)O[C@]1(C(C)=O)CC[C@H]2[C@@H]3C[C@H](C)C4=CC(=O)CC[C@]4(C)[C@H]3CC[C@@]21C	0.0476
CC(C)NCC(O)c1ccc2ccccc2c1 (configuration not stated)	0.311
NCC(=O)NCC(=O)O	0.102
Cc1c(O)c(=O)ccn1C	0.121
O=[N+]([O-])c1cc([As](=O)(O)O)ccc1O	0.121
O=C1C[C@@H](c2ccc(O)cc2)Oc2cc(O)cc(O)c21	0.208
CCC(=O)O[C@]1(C(=O)CCl)[C@@H](C)C[C@H]2[C@@H]3CCC4=CC(=O)C=C[C@]4(C)[C@@]3(F)[C@@H](O)C[C@@]21C	0.102
c1ccc([C@H]2CN3CCSC3=N2)cc1	0.0853
CC(C)[C@H](N)C(=O)OCC(CO)OCn1cnc2c(=O)nc(N)[nH]c21 (some centres not stated)	0.0448
NC(=O)c1ccc([N+](=O)[O-])cc1Cl	0.143

Fetched by structure from the entries so far, 2 records:
SMILES	fraction of eclosed F1 progeny that are homozygous ATM8
C[C@]12C=CC(=O)C=C1CC[C@@H]1[C@@H]2CC[C@]2(C)C(=O)CC[C@@H]12	0.29
CC(C)[C@H](N)C(=O)OCC(CO)OCn1cnc2c(=O)nc(N)[nH]c21 (some centres not stated)	0.0448

Continued.

SMILES	fraction of eclosed F1 progeny that are homozygous ATM8
O=C1OCCN1/N=C/c1ccc([N+](=O)[O-])o1	0.128
O=C(/C=C/C(=O)Oc1ccccc1C(=O)O)Oc1ccccc1C(=O)O	0.175
COc1ccc(-c2coc3cc(OC)cc(OC)c3c2=O)cc1	0.0247
O=c1c(O)c(-c2ccccc2)oc2cc(O)ccc12	0.111
COc1ccc(C2CNC(=O)C2)cc1OC1CCCC1 (configuration not stated)	0.152
O=c1c(O)c(-c2ccc(O)cc2O)oc2cc(O)cc(O)c12	0.0638
OC[C@H]1O[C@@H](Oc2cc(O)cc(/C=C/c3ccc(O)cc3)c2)[C@H](O)[C@@H](O)[C@@H]1O	0.143
COc1cc(-c2coc3cc(O[C@@H]4O[C@H](CO)[C@@H](O)[C@H](O)[C@H]4O)c(OC)c(O)c3c2=O)cc(O)c1OC	0.13
CCCCCCCCCCC[C@@H](C[C@@H]1OC(=O)[C@H]1CCCCCC)OC(=O)[C@H](CC(C)C)NC=O	0.0635
CC(=O)N[C@@H](CC(=O)O)C(=O)O	0.15
O=C1O[C@H](CO)[C@@H](O)[C@H](O)[C@H]1O	0.068
COc1cc(C/C=C/c2ccccc2)c(OC)cc1O	0.207
COc1ccc(-c2oc3ccccc3c(=O)c2OC)cc1	0.2
CC1(C)C(=O)C=C[C@@]2(C)C1=C(O)C(=O)[C@]1(C)[C@@H]2CC[C@@]2(C)[C@H](c3ccoc3)C[C@H]3O[C@]321	0
CO[C@H]1C[C@H](O[C@H]2[C@H](C)[C@@H](O[C@@H]3O[C@H](C)C[C@H](N(C)C)[C@H]3OC(C)=O)[C@@H](C)C[C@@]3(CO3)C(=O)[C@H](C)[C@@H](OC(C)=O)[C@@H](C)[C@@H](C)OC(=O)[C@@H]2C)O[C@@H](C)[C@@H]1OC(C)=O	0.075
O=C(O)CCCN1C(=O)c2cccc3cccc(c23)C1=O	0.118
O=C(O)C1CSCN1 (configuration not stated)	0.163
CC(C)(S)[C@@H](N)C(=O)O	0.188
C=CCCCCCCCCCCCC(O)CC(O)COC(C)=O (configuration not stated)	0
C[C@H]1CC[C@]2(NC1)O[C@H]1C[C@H]3[C@@H]4CC[C@H]5C[C@@H](O[C@@H]6O[C@H](CO)[C@H](O[C@@H]7O[C@H](CO)[C@@H](O)[C@H](O[C@@H]8OC[C@@H](O)[C@H](O)[C@H]8O)[C@H]7O[C@@H]7O[C@H](CO)[C@@H](O)[C@H](O)[C@H]7O)[C@H](O)[C@H]6O)CC[C@]5(C)[C@H]4CC[C@]3(C)[C@H]1[C@@H]2C	0.225
Cc1c(O)c(O)cc2c1CC=C1[C@@]2(C)CC[C@@]2(C)[C@@H]3C[C@](C)(C(=O)O)CC[C@]3(C)CC[C@]12C	0.102

SMILES	fraction of eclosed F1 progeny that are homozygous ATM8
CC(=O)NO	0.025
CC(=O)N[C@@H](CCC(N)=O)C(=O)O	0.167
COc1ccc(-c2c(O)c3c(OC)c4c(cc3oc2=O)OC(C)(C)C=C4)cc1	0.0857
CC(C)(Oc1ccc(Cl)cc1)C(=O)O	0.115
CN1CCCN=C1COC(=O)C(O)(c1ccccc1)C1CCCCC1 (configuration not stated)	0.191
O=C1CCO1	0.0506
CCC1(CC)C(=O)NC(=O)NC1=O	0.146
OC[C@@H](O)C(O)[C@H](O)CO	0.0417
CC(C)(Sc1cc(C(C)(C)C)c(O)c(C(C)(C)C)c1)Sc1cc(C(C)(C)C)c(O)c(C(C)(C)C)c1	0.116
COc1cc(-c2coc3cc(OC)c(OC)c(OC)c3c2=O)cc(OC)c1OC	0.0909
CCC(=O)c1ccc(O)cc1	0.188
Nc1c(Br)cc(Br)cc1CN[C@H]1CC[C@H](O)CC1	0.172
Oc1ccc(Cl)c2cccnc12	0.0312
Cn1ccnc1S	0.0263
C[C@]12CCC3c4ccc(OC(=O)c5ccccc5)cc4CCC3C1CCC2=O (some centres not stated)	0.106
O=C[C@H](O)[C@H](O)CO	0.208
N#CC(c1ccc(Cl)cc1)c1c(Cl)cc(-n2ncc(=O)[nH]c2=O)cc1Cl (configuration not stated)	0
COc1cc(OC)c(C(=O)CCCN2CCCC2)c(OC)c1	0.0769
CN1CCC(=C2c3ccccc3CC(=O)c3sccc32)CC1	0.0476
COc1ccccc1N1CCN(CC(O)COc2cccc3ccccc23)CC1 (configuration not stated)	0.102

Five structures already listed, sorted by count of non-hydrogen atoms, low to high.
SMILES	fraction of eclosed F1 progeny that are homozygous ATM8
O=C1CCO1	0.0506
O=C[C@H](O)[C@H](O)CO	0.208
CC(=O)N[C@@H](CCC(N)=O)C(=O)O	0.167
Nc1c(Br)cc(Br)cc1CN[C@H]1CC[C@H](O)CC1	0.172
CN1CCC(=C2c3ccccc3CC(=O)c3sccc32)CC1	0.0476

Reference: the supplement of paper PMC5770031
